# This list was built around the results that the source calls inconclusive (neither active nor inactive); the mix of calls is not that of the screen. For some of these results: Potencies beside an inconclusive call are fits to weak or partial responses and may not hold up. Calls of active or inactive are those of the source. Unless noted, calls follow the shape of the full dose curve.
# Sequences of proteins named here, by UniProt entry; tags and fusion partners are left off. A change or cut given only in a name is not applied to a line headed by its entry.
# UniProt P14416, whole entry, looked up: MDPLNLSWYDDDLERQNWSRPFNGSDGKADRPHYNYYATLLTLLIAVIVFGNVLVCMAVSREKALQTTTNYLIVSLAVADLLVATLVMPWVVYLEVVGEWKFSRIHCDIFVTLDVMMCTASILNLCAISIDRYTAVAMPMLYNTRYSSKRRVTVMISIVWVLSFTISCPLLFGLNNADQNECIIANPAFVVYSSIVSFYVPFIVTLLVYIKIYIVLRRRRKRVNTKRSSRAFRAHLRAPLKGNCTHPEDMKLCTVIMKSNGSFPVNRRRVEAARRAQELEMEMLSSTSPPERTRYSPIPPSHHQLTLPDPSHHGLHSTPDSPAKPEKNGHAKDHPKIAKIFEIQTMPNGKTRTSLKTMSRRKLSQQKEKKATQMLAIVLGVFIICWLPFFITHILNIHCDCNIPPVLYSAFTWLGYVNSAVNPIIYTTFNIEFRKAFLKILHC
# UniProt P30968: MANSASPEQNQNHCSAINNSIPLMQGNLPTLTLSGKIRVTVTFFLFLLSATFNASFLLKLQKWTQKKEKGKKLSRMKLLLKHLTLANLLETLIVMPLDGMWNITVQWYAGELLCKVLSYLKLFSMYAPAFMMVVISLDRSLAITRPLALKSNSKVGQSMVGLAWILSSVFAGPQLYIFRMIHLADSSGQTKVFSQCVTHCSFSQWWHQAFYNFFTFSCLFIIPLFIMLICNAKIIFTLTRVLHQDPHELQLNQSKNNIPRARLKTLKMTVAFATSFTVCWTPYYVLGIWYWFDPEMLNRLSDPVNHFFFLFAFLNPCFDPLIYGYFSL
# UniProt Q969F8, whole entry, looked up: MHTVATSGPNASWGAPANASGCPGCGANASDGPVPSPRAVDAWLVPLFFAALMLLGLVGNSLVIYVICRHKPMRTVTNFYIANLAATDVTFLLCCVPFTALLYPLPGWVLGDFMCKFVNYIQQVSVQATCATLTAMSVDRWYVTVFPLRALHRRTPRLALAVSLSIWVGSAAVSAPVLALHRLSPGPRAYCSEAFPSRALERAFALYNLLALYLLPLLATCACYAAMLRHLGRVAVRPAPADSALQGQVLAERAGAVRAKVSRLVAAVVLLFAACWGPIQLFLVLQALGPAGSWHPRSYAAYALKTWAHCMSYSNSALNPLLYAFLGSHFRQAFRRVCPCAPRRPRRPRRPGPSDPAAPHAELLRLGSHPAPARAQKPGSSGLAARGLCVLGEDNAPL
# UniProt P28223, whole entry, looked up: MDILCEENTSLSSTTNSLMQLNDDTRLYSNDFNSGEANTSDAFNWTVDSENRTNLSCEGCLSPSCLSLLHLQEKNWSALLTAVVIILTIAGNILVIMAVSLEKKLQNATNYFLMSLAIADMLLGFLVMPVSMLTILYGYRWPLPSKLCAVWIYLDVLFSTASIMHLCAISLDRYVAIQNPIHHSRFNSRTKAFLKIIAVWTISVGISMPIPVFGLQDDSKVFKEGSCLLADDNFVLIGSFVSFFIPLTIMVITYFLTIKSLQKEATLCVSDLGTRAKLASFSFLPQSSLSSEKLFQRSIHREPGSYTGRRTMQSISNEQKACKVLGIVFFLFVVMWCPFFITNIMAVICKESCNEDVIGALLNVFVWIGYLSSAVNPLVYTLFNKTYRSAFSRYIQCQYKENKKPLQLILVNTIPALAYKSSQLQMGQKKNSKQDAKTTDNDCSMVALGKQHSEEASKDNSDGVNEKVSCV
# UniProt P11229: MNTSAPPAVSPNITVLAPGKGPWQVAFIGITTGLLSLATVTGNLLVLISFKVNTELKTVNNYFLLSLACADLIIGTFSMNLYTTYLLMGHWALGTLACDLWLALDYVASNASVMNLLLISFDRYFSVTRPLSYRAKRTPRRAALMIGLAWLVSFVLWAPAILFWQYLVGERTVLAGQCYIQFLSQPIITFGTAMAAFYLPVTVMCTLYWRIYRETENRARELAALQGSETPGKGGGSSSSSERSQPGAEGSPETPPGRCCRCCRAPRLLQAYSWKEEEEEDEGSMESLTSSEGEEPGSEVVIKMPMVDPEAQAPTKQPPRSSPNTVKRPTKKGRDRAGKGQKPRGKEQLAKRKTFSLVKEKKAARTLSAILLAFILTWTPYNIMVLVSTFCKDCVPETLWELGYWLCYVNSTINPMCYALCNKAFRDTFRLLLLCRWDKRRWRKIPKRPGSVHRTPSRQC
# How the values were obtained:
# [1] = Nuclear factor erythroid 2-related factor 2/antioxidant responsive element (Nrf2/ARE) small molecule agonists: luciferase reporter gene qHTS assay in human keratinocytes (AID 1919969); conditions: KeratinoSens HaCaT ARE-luciferase, luminescence, 24 h; activity, positive = activation: at 92.4 µM (top of the series); also: % is scaled to controls: 0 for no effect and ±100 for the full control effect; nearly all actives have a fitted effect of over 35% in size
# [2] = molecular target: D(2) dopamine receptor (Homo sapiens) (UniProt P14416); assay: Dopamine D2 receptor (DRD2) small molecule antagonists, cell-based qHTS assay (AID 1963595; active = well fitted inhibition curve with a large enough effect in the signal ratio in the repeat runs, with a control signal flat; inconclusive = weak or mixed curves, or effect the other way; the % refers to the signal ratio; also: % is scaled to controls: 0 for no effect and ±100 for the full control effect); conditions: HEK293-DRD2 cAMP HTRF antagonist mode; activity change, negative = inhibition: at 92.4 µM (top of the series) unless noted
# Method in brief: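 DRD2-HEK293; 0.1 mM Ro20-1724; cpd 10 min RT; NKH477 200 nM + quinpirole 12 nM, 30 min RT; HTRF cAMP (cAMP-d2/anti-cAMP cryptate), 665/620 nm ratio after 1 h.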
# [3] = molecular target: Beta-2 adrenergic receptor (Homo sapiens) (UniProt P07550); assay: Adrenergic beta2 receptor (ADRB2) small molecule agonists, cell-based qHTS assay (AID 1963593); conditions: CHO-ADRB2 cells, cAMP HTRF, 30 min; activation: at 92.4 µM (top of the series) unless noted;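 also: CHO cells stably overexpressing human ADRB2; % is scaled to controls: 0 for no effect and ±100 for the full control effect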
# Method in brief: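 CHO cells stably over-expressing ADRB2 were plated overnight at 37C, then dosed with compounds plus a stimulation mix containing 100uM IBMX and 25uM Ro-20-1724 for 0.5hr at room temperature. cAMP was measured by HTRF competition, 1hr.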
# [4] = molecular target: Gonadotropin-releasing hormone receptor (Homo sapiens) (UniProt P30968); assay: Human gonadotropin-releasing hormone receptor (GnRHR) small molecule agonists, calcium flux assay in GnRHR-HEK293 cells (AID 1920063); conditions: calcium flux fluorescence, agonist mode; activity change: at 57.6 µM (top of the series), stronger effect = higher value unless noted; also: nearly all actives have a fitted effect of over 35% in size; also: potency is read from the fitted curve at half-maximal effect; as to activity change: % is scaled to controls: 0 for no effect and ±100 for the full control effect
# Method in brief: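 Calcium-dye fluorescence, Ex/Em=480/540, recorded every 1 sec over 3 min after compound addition to GnRHR-HEK293 cells. Cells had been seeded 18 hours earlier and dye-loaded for 1 hour at 37 C. Fifteen concentrations, triplicates.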
# [5] = molecular target: KiSS-1 receptor (Homo sapiens) (UniProt Q969F8); assay: Human kisspeptin (KISS1R) small molecule agonists, calcium flux assay in KISS1R-HEK293 cells (AID 1920064; active = well fitted activation curve with a large enough effect in the repeat runs; inconclusive = weak or mixed curves; also: potency is read from the fitted curve at half-maximal effect); conditions: KISS1R-HEK293, calcium flux fluorescence, agonist; series mostly up to 76.8 µM
# Method in brief: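 Calcium flux read-out: kinetic fluorescence at Ex/Em=480/540, 1 s intervals over 3 min, after pin-tool compound addition to dye-loaded KISS1R-HEK293 cells. Fifteen concentrations, triplicates.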
# [6] = molecular target: 5-hydroxytryptamine receptor 2A (Homo sapiens) (UniProt P28223); assay: 5-hydroxytryptamine receptor 2A (HTR2A) small molecule antagonists, cell-based qHTS assay (AID 1963586); conditions: HTR2A-CHO cells, DOI-induced calcium flux, fluorescence; series mostly up to 61.5 µM; also: nearly all actives have a fitted effect of over 45% in size; also: potency is read from the fitted curve at half-maximal effect
# Method in brief: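 CHO cells stably expressing human HTR2A were plated for 18 h at 37 C, then loaded with calcium dye for 1 h. Compounds were preincubated 5 min at room temperature before DOI (4 nM solution) was added. Kinetic fluorescence was read for 3 min.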
# [7] = molecular target: Muscarinic acetylcholine receptor M1 (Homo sapiens) (UniProt P11229); assay: Cholinergic receptor muscarinic 1 (CHRM1) small molecule agonists, cell-based qHTS assay (AID 1963589); conditions: CHRM1-CHO cells, agonist mode, calcium flux fluorescence; series mostly up to 76.8 µM; also: potency is read from the fitted curve at half-maximal effect; nearly all actives have a fitted effect of over 35% in size
# Method in brief: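 Calcium flux read-out: kinetic fluorescence at 1 sec intervals after pin-tool compound addition to dye-loaded CHRM1-CHO cells (human M1). Agonist mode; 15 concentrations tested in triplicate independent runs.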
# [8] = cAMP Responsive Elements (CRE) small molecule agonists, cell-based qHTS assay (AID 1963590); conditions: CRE-bla HEK293T, beta-lactamase FRET ratio, 3 h; activation: at 92.4 µM (top of the series) unless noted; also: potency is read from the fitted curve at half-maximal effect; as to activation: % is scaled to controls: 0 for no effect and ±100 for the full control effect
# Method in brief: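 Beta-lactamase reporter readout: LiveBLAzer B/G FRET substrate, 2 h at room temperature, added after 3 h compound treatment of CRE-bla HEK 293T cells at 37 C/5% CO2.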
# [9] = cAMP Responsive Elements (CRE) small molecule antagonists, cell-based qHTS assay (AID 1963591; active = well fitted inhibition curve with a large enough effect in the signal ratio in the repeat runs, not every such curve was filed as active; inconclusive = weak or mixed curves, or effect the other way; the % refers to the signal ratio; also: potency is read from the fitted curve at half-maximal effect); conditions: CRE-bla HEK293T, beta-lactamase FRET ratio; activity change, negative = inhibition: at 92.4 µM (top of the series) unless noted
# Method in brief: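 HEK293T CRE-bla; 18 h preincubation; compound pin-transfer; NKH477 0.25 uM final, 3 h, 37 C; LiveBLAzer FRET substrate 2 h RT.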
# [10] = p53 small molecule agonists, cell-based qHTS assay with human liver microsomes (AID 1963577); conditions: HCT-116 p53RE-bla with human liver microsomes, ratio, 16 h; activation: at 66 µM (top of the series) unless noted; also: potency is read from the fitted curve at half-maximal effect
# Method in brief: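 Compounds act here after metabolic activation: human liver microsomes and NADPH, both at 0.5 mg/mL final, were co-added to p53RE-bla cells. Incubation ran 16 h at 37 C, followed by LiveBLAzer detection.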
# [11] = p53 small molecule agonists, cell-based qHTS assay with rat liver microsomes (AID 1963578); conditions: HCT-116 p53RE-bla, beta-lactamase ratio, 16 h; activation: at 66 µM (top of the series) unless noted; also: potency is read from the fitted curve at half-maximal effect
# Method in brief: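 Read-out is beta-lactamase reporter fluorescence (LiveBLAzer, 2 h, room temperature, dark) in p53RE-bla cells treated 16 h at 37 C with compound, rat liver microsomes and NADPH, both 0.5 mg/mL final.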
# [12] = p53 small molecule agonists, cell-based qHTS assay with human liver microsomes: qHTS cell viability counter screen (AID 1963579); conditions: p53RE-bla HCT-116 viability, ATP luminescence, 16 h, HLM; series mostly up to 66 µM; also: potency is read from the fitted curve at half-maximal effect; nearly all actives have a fitted effect of over 45% in size
# Method in brief: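 Cells carrying the p53 response-element beta-lactamase reporter are treated for 16 h at 37 C with test compounds in the presence of human liver microsomes and NADPH (both 0.5 mg/mL final); ATP-based CellTiter-Glo luminescence then reports viability.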
# [13] = p53 small molecule agonists, cell-based qHTS assay: qHTS cell viability counter screen (AID 1963581); conditions: p53RE-bla HCT-116 viability, ATP luminescence, 16 h; series mostly up to 66 µM; also: potency is read from the fitted curve at half-maximal effect; nearly all actives have a fitted effect of over 45% in size
# Method in brief: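 Cytotoxicity read-out: ATP-based luminescence (CellTiter-Glo, 30 min RT) measured in the same wells as the p53 reporter assay, HCT-116 p53RE-bla cells, 16 h compound exposure at 37 C.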
# [14] = molecular target: D(2) dopamine receptor (Homo sapiens) (UniProt P14416); assay: Dopamine D2 receptor (DRD2) small molecule agonists, cell-based qHTS assay (AID 1963594); conditions: HEK293-DRD2 cAMP HTRF, agonist mode, 30 min; activation: at 92.4 µM (top of the series) unless noted; also: potency is read from the fitted curve at half-maximal effect; nearly all actives have a fitted effect of over 35% in size
# Method in brief: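 HEK293 cells stably expressing DRD2 were cultured 24 h at 37 C, then given Ro20-1724 (0.1 mM final) and compounds for 10 min at room temperature. NKH477 (200nM) was then added for 30 min. cAMP was read by HTRF.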
# [15] = p53 small molecule agonists, cell-based qHTS assay with rat liver microsomes: qHTS cell viability counter screen (AID 1963580); conditions: p53RE-bla HCT-116 + rat microsomes, ATP viability, 16 h; series mostly up to 66 µM; also: potency is read from the fitted curve at half-maximal effect; nearly all actives have a fitted effect of over 45% in size
# Method in brief: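 Luminescent ATP readout (CellTiter-Glo, 30 min at room temperature) reports viability of p53RE-bla HCT-116 cells after 16 h at 37 C with test compounds under metabolic activation by rat liver microsomes and NADPH at 0.5 mg/mL final each.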
# [16] = p53 small molecule agonists, cell-based qHTS assay (AID 1963582; active = well fitted activation curve with a large enough effect in the signal ratio in the repeat runs, not every such curve was filed as active; inconclusive = weak or mixed curves; the % refers to the signal ratio; also: potency is read from the fitted curve at half-maximal effect); conditions: HCT-116 p53RE-bla reporter, beta-lactamase FRET ratio, 16 h; activation: at 66 µM (top of the series) unless noted
# Method in brief: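 Fluorescence intensity read-out of a beta-lactamase reporter under a p53 response element. Cells were exposed to DMSO-dissolved compounds for 16 h at 37 C, then developed with FRET substrate for 2 h at RT.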
smiles,measurement,setting,value
CC1=CC[C@@]23C[C@@H]1C(C)(C)[C@@H]2CC[C@H]3C,Potency,[1],inactive
same,"activity change, negative = inhibition",[2],inconclusive: -0.0492%
CN(C)C(=O)Oc1ccc[n+](C)c1,Potency,[1],inactive
same,Potency,[3],inactive
same,"activity change, negative = inhibition",[2],inconclusive: -0.448% [at 42.5 µM]
CCCC/C=C/C=C\C=O,Potency,[4],inactive
same,Potency,[5],"inconclusive: 21.9 µM [activator, partial curve, poor fit]"
same,Potency,[6],inactive
same,Potency,[7],"inconclusive: 61.6 µM [rising, partial curve, poor fit]"
same,Potency,[8],inactive
same,Potency,[9],inconclusive: 61.1 µM [activator]
same,activation,[3],inconclusive: 10.5%
CC[C@@]1(O)C(=O)OCc2c1cc1n(c2=O)Cc2cc3c(CN(C)C)c(O)ccc3nc2-1,Potency,[4],"inconclusive: 16.9 µM [activator, partial curve]"
same,Potency,[10],"inconclusive: 15.8 µM [rising, partial curve]"
same,Potency,[11],"inconclusive: 17.8 µM [rising, partial curve]"
same,Potency,[12],"inconclusive: 12.6 µM [rising, partial curve, poor fit]"
same,Potency,[13],"inconclusive: 3.54 µM [cytotoxic, full curve, poor fit]"
same,Potency,[8],"inconclusive: 23.7 µM [rising, partial curve]"
same,Potency,[9],"inconclusive: 23.7 µM [rising, partial curve]"
same,Potency,[3],inactive
CC(=O)OCC(=O)Nc1cc(C#N)cc(NC(=O)COC(C)=O)c1Cl,Potency,[1],inactive
same,Potency,[14],"inconclusive: 11.9 µM [rising, single point]"
O=C1c2c(O)ccc([N+](=O)[O-])c2C(=O)c2c([N+](=O)[O-])ccc(O)c21,Potency,[4],active: 17.2 µM
same,Potency,[10],"inconclusive: 14.3 µM [falling, partial curve, poor fit]"
same,Potency,[11],"inconclusive: 18 µM [activator, single point]"
same,Potency,[12],active: 18 µM
same,Potency,[15],active: 20.2 µM
same,Potency,[13],active: 5.71 µM
same,Potency,[16],"inconclusive: 36 µM [falling, partial curve]"
same,Potency,[6],"inconclusive: 46.8 µM [inhibitor, single point]"
same,Potency,[9],inconclusive: 27.1 µM
same,activation,[3],inconclusive: -73.5%
same,Potency,[14],inconclusive: 36.9 µM
same,"activity change, negative = inhibition",[2],inconclusive: 7.23%

# Exported with bars between the fields: part of the list above.
smiles | measurement | setting | value
CC[C@@]1(O)C(=O)OCc2c1cc1n(c2=O)Cc2cc3c(CN(C)C)c(O)ccc3nc2-1 | Potency | [13] | inconclusive: 3.54 µM [cytotoxic, full curve, poor fit]
same | Potency | [8] | inconclusive: 23.7 µM [rising, partial curve]

# Source: PubChem BioAssay (Tox21)
